Values from PubChem BioAssay AID1224830 (NIAID, 2016).

Aim: 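Genes whose knock-down alters the TNF-alpha reporter response to LPS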 (primary screen)
Cells: human THP-1 monocytic leukaemia cells, TNF dual-luciferase reporter clone, PMA-differentiated to macrophage-like cells
Reagent: siRNA pool against human genes, 50 nM
Duration: LPS for 4 h, given about 3 days after siRNA transfection
Challenge: bacterial LPS (TLR4 ligand), 10 ng/ml
Measurement: 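Ratio of firefly to renilla light, scaled to the plate median and expressed as a robust z-score per replicate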
Direction: TNF reporter robust z-score: higher = stronger TNF reporter response to LPS
Hit rule: 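Each well counts as active if its z-score is over 2.8 or under -1.5; controls are left without a call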
The whole screen tested about 18,000 reagents; shown is an unselected part. About 2,900 of them (16%) were called active. 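Calls are made per well; low scores hint the gene aids the LPS response, high scores that it dampens it.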 Repeated entries: four replicate wells of each siRNA pool. No sequences are given here.

target	TNF reporter robust z-score	Call
OR2W1	-1.13	inactive
OR2W1	-1.07	inactive
OR2W1	0.36	inactive
OR2W1	0.94	inactive
BMPER	0.51	inactive
BMPER	0.77	inactive
BMPER	1.02	inactive
BMPER	1.77	inactive
RNF113A	3.14	active
RNF113A	0.65	inactive
RNF113A	2.44	inactive
RNF113A	1.62	inactive
ZNF404	0.41	inactive
ZNF404	-0.43	inactive
ZNF404	0.13	inactive
ZNF404	0.58	inactive
ZSCAN20	-0.84	inactive
ZSCAN20	-1.65	active
ZSCAN20	-0.77	inactive
ZSCAN20	-0.56	inactive
TENM1	1.21	inactive
TENM1	0.6	inactive
TENM1	-0.81	inactive
TENM1	-0.85	inactive
WIPF3	-0.31	inactive
WIPF3	0.08	inactive
WIPF3	0.3	inactive
WIPF3	1.17	inactive
ZNF223	-0.11	inactive
ZNF223	-0.06	inactive
ZNF223	-1.29	inactive
ZNF223	0.15	inactive
SLC25A39	0.26	inactive
SLC25A39	2.23	inactive
SLC25A39	0.35	inactive
SLC25A39	1.04	inactive
MST1R	0.77	inactive
MST1R	-0.33	inactive
MST1R	-0.88	inactive
MST1R	0.05	inactive
DNAJB2	-1.35	inactive
DNAJB2	-0.21	inactive
DNAJB2	-0.77	inactive
DNAJB2	-0.98	inactive
PFN2	0.21	inactive
PFN2	2.19	inactive
PFN2	0.12	inactive
PFN2	0.11	inactive

Laid out differently: 11 of the entries above.
target,TNF reporter robust z-score,Call
ZSCAN20,-0.84,inactive
ZSCAN20,-1.65,active
ZSCAN20,-0.77,inactive
ZSCAN20,-0.56,inactive
TENM1,1.21,inactive
TENM1,0.6,inactive
TENM1,-0.81,inactive
TENM1,-0.85,inactive
WIPF3,-0.31,inactive
WIPF3,0.08,inactive
WIPF3,0.3,inactive

The results go on.
target	TNF reporter robust z-score	Call
ZNF350	-0.08	inactive
ZNF350	-0.81	inactive
ZNF350	-1.7	active
ZNF350	-1.28	inactive
CACNG1	0.01	inactive
CACNG1	0.02	inactive
CACNG1	-1	inactive
CACNG1	-0.19	inactive
KRT10-AS1	-0.12	inactive
KRT10-AS1	-1.44	inactive
KRT10-AS1	-0.61	inactive
KRT10-AS1	-0.04	inactive
PCLAF	-0.37	inactive
PCLAF	-0.31	inactive
PCLAF	0.84	inactive
PCLAF	0.75	inactive
WASHC4	-1.08	inactive
WASHC4	-0.96	inactive
WASHC4	-0.73	inactive
CIMIP2A	0.81	inactive
CIMIP2A	0.37	inactive
CIMIP2A	-0.24	inactive
CIMIP2A	-0.62	inactive
SIK2	0.81	inactive
SIK2	-0.82	inactive
SIK2	-0.72	inactive
SIK2	-1.49	inactive
